Laboratory results as given in patent publication US20250270319A1.
Numbering of substitutions follows the chain as printed. These are yes or no findings as the source states them, for the method shown. Binding can be weak; no strength is given.

B1: anti-CD33 antibody 6C7H47 (antibody, V domains shown)
VH: EVQLVESGGGLVQPGGSLRLSCAGSGFTFSNYEMNWVRQAPGKGLEWVAEIRLKSNNYVTNYAASVKGRFTISRDDSKNSVYLQMNSLKTEDTGVYYCTRAGYYVPFAYWGQGTLVTVSS
VL: QLMLTQSPSASASLGASVKLTCTLSSQHSTYTIEWYQQQPGKGPRYLMELKKEGSHSTGDGIPDRFSGSSSGAERYLTISSLQSEDEADYYCGVGHTIKEQFVYEFGGGTKLTVL
B2: anti-CD33 antibody 6C7H48 (antibody, V domains shown)
VH: B1 VH
VL: B1 VL with L2P, H96L, E105V
B3: anti-CD33 antibody 6C7H52 (antibody, V domains shown)
VH: B1 VH with G24A, N31E, E33A, N35L, A49G
VL: B1 VL with E105V
B4: anti-CD33 antibody 6C7H54 (antibody, IgG1, V domains shown)
VH: B1 VH
VL: B1 VL with E105V
B5: anti-CD33 6C7 chimeric antibody (antibody, V domains shown)
VH: EVKLEESGGGLVQPGGSMKLSCVGSGFTFSNYCMNWVRQSPEKGLEWVAEIRLKSNNYVTNYVESVKGRFTISRDDSKSRVYLQMNNLRGEDTGFYYCTRDGYYVPFAYWGQGTLVTVSA
VL: QLVLTQSSSASFSLGASAKLTCTLSSQHSTYTIEWYQQQPLKPPKYVMELKKDGSHSTGDGIPDRFSGSSSGADRYLSISNIQPEDEAIYICGVGDTIKEQFVYVFGGGTKVTVL
B6: anti-CD33 antibody 6C7H5 (antibody, V domains shown)
VH: B1 VH with E33C, A101D
VL: B1 VL with M3V, G41E, E53D, H96D, E105V
B7: anti-CD33 antibody 6C7H36 (antibody, V domains shown)
VH: B1 VH with G24A, N31E, E33A, N35L, A49G, A108T
VL: B1 VL
B8: anti-CD33 antibody 6C7H37 (antibody, V domains shown)
VH: B1 VH with G24A, N31E, E33A, N35L, A49G, A108T
VL: B1 VL with E105V
B9: anti-CD33 antibody 6C7H38 (antibody, V domains shown)
VH: B1 VH with G24A, N31E, E33A, N35L, A49G, A108T
VL: B1 VL with L2P, H96L, E105V
B10: anti-CD33 antibody 6C7H41 (antibody, V domains shown)
VH: B1 VH with G24A, N31E, E33D, N35L, A49G, S77T
VL: B1 VL with E105V
B11: anti-CD33 antibody 6C7H46 (antibody, V domains shown)
VH: B1 VH with G24A, N31E, E33A, N35L, A49G
VL: B1 VL with L2P, H96L, E105V

target: recombinant cynomolgus CD33 protein (NovoProtein) (cynomolgus); test: ELISA, plate coated with recombinant CD33

binding, binds:
B1
B2
B3
B4
B5
B6
B7
B8
B9

target: recombinant cynomolgus CD33 protein (NovoProtein) (cynomolgus); test: ELISA, plate coated with recombinant cynomolgus CD33, HRP anti-human IgG, TMB, A650

binding, binds:
B1
B2
B3
B4
B5
B6
B7
B10
B11
